Test results taken from the supplement of paper PMC10849652.
This is one part of the list.

By UniProt entry, the sequences of proteins in these tests, tags left out. Where a name states a change or a piece, a line headed by the entry shows the natural chain unless it says otherwise.
UniProt Q9Y3B2, whole entry, looked up: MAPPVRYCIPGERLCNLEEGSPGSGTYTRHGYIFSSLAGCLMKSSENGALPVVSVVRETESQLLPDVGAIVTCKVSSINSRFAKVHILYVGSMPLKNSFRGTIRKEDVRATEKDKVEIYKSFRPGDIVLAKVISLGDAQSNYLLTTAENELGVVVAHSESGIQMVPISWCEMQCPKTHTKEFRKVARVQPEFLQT
UniProt Q9NZB2: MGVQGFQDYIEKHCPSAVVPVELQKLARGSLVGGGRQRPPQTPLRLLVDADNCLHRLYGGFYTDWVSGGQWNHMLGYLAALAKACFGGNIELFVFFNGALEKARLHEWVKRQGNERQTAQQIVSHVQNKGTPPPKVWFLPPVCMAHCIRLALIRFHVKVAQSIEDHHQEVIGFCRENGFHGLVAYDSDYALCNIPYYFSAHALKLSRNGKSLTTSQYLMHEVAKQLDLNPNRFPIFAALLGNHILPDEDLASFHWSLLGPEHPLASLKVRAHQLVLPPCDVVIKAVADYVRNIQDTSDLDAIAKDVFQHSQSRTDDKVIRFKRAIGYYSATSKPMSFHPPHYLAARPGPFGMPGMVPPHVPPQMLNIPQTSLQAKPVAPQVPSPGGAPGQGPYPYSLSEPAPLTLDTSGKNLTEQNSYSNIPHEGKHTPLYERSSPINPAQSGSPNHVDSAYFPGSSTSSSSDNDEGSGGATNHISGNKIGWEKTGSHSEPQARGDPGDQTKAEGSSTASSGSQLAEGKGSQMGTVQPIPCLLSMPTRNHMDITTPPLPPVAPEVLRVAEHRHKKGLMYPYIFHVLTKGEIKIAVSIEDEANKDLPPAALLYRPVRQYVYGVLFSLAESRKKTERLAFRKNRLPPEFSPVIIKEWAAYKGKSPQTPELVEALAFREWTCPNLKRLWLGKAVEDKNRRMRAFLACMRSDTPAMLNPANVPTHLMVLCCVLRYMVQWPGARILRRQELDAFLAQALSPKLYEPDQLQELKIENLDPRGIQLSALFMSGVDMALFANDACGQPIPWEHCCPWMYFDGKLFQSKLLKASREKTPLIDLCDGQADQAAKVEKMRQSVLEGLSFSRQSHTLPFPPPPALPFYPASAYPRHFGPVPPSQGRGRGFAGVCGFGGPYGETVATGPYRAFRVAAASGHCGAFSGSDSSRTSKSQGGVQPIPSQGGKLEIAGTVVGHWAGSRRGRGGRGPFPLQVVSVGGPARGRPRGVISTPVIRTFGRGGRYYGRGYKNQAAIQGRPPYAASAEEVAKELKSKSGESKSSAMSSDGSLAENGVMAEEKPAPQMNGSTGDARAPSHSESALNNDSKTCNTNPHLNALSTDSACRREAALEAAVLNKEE
UniProt P13804: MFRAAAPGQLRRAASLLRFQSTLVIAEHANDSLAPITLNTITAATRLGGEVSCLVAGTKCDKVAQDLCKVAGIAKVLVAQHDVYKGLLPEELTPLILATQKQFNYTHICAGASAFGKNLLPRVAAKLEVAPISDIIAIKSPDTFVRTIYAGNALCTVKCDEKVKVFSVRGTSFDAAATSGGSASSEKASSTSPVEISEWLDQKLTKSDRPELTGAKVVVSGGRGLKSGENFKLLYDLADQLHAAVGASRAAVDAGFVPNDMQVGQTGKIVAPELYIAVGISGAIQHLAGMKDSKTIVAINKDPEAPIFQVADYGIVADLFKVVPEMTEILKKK
UniProt Q92889: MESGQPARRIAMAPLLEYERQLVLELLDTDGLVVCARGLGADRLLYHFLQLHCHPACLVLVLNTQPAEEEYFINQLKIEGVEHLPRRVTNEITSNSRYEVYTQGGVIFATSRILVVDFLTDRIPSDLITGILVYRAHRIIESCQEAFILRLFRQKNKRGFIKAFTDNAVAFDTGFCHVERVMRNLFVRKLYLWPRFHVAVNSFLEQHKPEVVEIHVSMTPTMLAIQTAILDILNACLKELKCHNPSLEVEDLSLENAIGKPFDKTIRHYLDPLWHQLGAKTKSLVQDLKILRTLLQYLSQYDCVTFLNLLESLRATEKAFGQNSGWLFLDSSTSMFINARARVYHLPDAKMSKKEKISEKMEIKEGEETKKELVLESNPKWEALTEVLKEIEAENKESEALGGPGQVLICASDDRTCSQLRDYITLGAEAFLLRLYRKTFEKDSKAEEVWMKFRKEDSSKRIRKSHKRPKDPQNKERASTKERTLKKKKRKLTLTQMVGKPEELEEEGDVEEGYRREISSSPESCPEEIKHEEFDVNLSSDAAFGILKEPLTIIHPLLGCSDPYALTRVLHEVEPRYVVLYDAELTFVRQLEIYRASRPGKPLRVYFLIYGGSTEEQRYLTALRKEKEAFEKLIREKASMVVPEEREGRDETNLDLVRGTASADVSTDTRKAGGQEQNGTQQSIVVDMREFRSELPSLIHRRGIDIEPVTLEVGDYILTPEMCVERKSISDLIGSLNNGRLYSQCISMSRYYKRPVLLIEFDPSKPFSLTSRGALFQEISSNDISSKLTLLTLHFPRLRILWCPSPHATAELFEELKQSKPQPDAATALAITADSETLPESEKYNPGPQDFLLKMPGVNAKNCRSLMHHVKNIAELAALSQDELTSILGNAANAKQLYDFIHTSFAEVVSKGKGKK
UniProt P07814: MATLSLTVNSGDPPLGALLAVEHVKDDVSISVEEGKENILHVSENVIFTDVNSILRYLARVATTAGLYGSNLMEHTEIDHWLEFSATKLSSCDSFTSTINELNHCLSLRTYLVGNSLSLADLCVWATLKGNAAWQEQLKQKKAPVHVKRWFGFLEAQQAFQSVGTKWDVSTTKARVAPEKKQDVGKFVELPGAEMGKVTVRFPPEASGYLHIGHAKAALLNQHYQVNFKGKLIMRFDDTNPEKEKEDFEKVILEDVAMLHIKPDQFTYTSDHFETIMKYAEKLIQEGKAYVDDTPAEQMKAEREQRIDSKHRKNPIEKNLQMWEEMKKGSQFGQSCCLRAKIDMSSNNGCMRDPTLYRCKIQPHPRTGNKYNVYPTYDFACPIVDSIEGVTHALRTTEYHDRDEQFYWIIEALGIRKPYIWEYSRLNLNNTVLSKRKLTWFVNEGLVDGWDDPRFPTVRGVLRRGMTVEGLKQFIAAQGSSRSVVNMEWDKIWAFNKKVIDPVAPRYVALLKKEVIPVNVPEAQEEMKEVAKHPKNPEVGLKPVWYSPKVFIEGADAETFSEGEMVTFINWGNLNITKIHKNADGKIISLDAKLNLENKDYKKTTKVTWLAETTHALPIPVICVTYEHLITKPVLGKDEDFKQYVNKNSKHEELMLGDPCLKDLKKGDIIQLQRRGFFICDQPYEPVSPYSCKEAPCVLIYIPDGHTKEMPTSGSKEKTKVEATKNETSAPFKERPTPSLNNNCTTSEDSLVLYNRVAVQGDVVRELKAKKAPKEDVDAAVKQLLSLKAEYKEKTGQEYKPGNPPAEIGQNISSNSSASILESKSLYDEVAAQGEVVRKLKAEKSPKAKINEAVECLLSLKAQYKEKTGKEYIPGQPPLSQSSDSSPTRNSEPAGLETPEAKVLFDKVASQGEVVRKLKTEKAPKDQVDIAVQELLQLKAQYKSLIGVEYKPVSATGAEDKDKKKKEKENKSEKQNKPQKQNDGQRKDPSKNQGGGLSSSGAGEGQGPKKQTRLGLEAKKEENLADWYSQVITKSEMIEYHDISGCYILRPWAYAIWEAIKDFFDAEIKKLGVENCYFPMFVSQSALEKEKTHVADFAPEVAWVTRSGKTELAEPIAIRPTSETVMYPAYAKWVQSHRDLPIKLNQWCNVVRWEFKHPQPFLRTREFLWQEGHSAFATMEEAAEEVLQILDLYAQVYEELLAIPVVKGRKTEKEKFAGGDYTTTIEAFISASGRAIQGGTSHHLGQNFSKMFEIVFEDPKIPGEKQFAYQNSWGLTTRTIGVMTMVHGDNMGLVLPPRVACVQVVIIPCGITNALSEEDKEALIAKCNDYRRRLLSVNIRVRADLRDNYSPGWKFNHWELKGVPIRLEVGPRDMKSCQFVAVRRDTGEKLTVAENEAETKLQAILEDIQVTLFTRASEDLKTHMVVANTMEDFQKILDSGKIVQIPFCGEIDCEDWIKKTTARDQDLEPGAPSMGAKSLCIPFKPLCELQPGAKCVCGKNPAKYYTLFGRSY
UniProt Q15024, whole entry, looked up: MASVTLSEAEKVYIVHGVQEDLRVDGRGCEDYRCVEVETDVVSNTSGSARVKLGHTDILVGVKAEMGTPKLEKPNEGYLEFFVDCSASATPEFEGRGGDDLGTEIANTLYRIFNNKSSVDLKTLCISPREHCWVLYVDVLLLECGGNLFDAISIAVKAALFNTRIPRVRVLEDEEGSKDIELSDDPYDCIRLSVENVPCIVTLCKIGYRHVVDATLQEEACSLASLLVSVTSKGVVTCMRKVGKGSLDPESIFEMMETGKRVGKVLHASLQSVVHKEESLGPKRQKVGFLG
UniProt Q96HE7: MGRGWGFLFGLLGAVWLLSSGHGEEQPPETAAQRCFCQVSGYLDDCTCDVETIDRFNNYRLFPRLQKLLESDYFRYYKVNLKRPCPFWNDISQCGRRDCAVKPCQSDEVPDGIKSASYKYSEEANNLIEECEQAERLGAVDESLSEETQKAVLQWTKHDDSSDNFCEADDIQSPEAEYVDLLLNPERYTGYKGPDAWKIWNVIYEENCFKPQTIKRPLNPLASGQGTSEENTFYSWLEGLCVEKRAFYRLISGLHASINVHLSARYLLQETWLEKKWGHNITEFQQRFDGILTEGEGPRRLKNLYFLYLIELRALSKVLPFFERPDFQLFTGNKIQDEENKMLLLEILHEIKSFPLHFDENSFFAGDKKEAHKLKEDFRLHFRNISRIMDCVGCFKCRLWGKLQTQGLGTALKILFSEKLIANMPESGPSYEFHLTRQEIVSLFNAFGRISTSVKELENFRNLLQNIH
UniProt Q9Y282: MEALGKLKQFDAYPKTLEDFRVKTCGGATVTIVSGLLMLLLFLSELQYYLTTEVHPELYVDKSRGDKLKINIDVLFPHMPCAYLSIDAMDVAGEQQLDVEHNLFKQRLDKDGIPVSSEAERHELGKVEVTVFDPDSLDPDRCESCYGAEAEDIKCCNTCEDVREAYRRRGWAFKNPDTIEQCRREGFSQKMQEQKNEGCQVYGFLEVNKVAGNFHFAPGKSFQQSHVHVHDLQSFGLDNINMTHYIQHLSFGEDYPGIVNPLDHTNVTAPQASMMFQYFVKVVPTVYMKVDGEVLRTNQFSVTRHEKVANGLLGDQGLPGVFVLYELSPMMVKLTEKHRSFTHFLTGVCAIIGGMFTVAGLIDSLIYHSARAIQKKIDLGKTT
UniProt Q16134: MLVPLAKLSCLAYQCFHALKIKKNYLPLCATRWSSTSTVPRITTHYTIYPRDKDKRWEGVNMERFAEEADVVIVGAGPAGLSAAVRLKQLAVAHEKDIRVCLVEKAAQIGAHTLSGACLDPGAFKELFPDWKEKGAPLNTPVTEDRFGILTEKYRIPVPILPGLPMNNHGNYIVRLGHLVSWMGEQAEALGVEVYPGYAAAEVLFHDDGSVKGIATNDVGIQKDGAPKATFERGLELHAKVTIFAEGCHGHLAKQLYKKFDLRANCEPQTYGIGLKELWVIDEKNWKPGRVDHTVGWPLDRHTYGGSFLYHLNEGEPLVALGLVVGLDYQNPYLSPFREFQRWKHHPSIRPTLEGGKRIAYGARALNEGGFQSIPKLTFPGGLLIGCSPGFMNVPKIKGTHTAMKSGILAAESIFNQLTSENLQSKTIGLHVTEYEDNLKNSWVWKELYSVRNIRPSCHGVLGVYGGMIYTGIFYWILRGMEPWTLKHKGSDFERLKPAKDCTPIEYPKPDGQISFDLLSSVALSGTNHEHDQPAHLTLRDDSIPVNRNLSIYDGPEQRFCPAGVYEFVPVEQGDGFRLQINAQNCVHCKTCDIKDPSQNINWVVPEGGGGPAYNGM
UniProt Q96PL5: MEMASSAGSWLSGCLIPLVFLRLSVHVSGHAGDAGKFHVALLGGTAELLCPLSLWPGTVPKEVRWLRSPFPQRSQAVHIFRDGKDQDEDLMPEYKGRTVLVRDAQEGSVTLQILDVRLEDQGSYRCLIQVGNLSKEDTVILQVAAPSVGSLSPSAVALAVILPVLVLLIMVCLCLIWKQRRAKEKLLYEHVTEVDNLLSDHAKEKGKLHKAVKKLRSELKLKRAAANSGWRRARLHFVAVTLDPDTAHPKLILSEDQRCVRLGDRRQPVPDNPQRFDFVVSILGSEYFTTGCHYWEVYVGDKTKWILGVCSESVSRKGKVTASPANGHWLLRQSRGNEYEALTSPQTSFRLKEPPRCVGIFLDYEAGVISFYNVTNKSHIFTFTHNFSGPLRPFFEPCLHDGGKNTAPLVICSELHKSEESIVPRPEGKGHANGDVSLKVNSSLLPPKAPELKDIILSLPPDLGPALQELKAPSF

Legend:
Test in all cases: log2 fold change, soluble protein after heating vs DMSO (PISA); higher = thermal stabilisation; K562 cells, 10 uM, 30 min; active = over 0.2 and 3.5 SD of the protein, either way, in both replicates (recomputed)
[1] = compound: COC1=CC=C(C=C1)CN2C=CC3=C2C=C(C=C3)C(=O)NO
How it was run: (§1)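 For each measurement, 10 μM compound was applied for 30 min to K562 cells at 2×10^6 cells/mL. Aliquots were heated for 3 min across 48°C-58°C, pooled, and extracted in PBS with 0.5% NP-40 at 4°C; the supernatant after 21,000xg for 90 min was soluble protein. This was quantified by TMTpro 16plex LC-MS/MS with channel sums equalised, and thermal stability was reported relative to control samples from duplicates, on a log2 fold-change scale.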

filanesib = compound: CON(C)C(=O)N1N=C(c2cc(F)ccc2F)S[C@@]1(CCCN)c1ccccc1 [filanesib]
How it was run: as §1

zotarolimus = compound: CO[C@H]1C[C@@H]2CC[C@@H](C)[C@@](O)(O2)C(=O)C(=O)N2CCCC[C@H]2C(=O)O[C@H]([C@H](C)C[C@@H]2CC[C@H](n3cnnn3)[C@H](OC)C2)CC(=O)[C@H](C)/C=C(\C)[C@@H](O)[C@@H](OC)C(=O)[C@H](C)C[C@H](C)/C=C/C=C/C=C/1C [zotarolimus]
How it was run: as §1

idasanutlin = compound: COc1cc(C(=O)O)ccc1NC(=O)[C@@H]1N[C@@H](CC(C)(C)C)[C@](C#N)(c2ccc(Cl)cc2F)[C@H]1c1cccc(Cl)c1F [idasanutlin]
How it was run: as §1

alisertib = compound: COc1cc(Nc2ncc3c(n2)-c2ccc(Cl)cc2C(c2c(F)cccc2OC)=NC3)ccc1C(=O)O [alisertib]
How it was run: as §1

[2] = compound: COc1cc2nc(-c3cc(F)ccc3O)nc(N[C@@H]3CNC[C@H]3C(C)(C)O)c2cc1OC
How it was run: as §1

gefitinib = compound: COc1cc2ncnc(Nc3ccc(F)c(Cl)c3)c2cc1OCCCN1CCOCC1 [gefitinib]
How it was run: as §1

[3] = compound: COc1cccc2cc(-c3nc([C@H]4CC[C@H](C(=O)O)CC4)n4ncnc(N)c34)[nH]c12
How it was run: as §1

lapatinib = compound: CS(=O)(=O)CCNCc1ccc(-c2ccc3ncnc(Nc4ccc(OCc5cccc(F)c5)c(Cl)c4)c3c2)o1 [lapatinib]
How it was run: as §1

pictilisib = compound: CS(=O)(=O)N1CCN(Cc2cc3nc(-c4cccc5[nH]ncc45)nc(N4CCOCC4)c3s2)CC1 [pictilisib]
How it was run: as §1

[4] = compound: CS(=O)(=O)c1ccc(-c2cnc(N)c(C(=O)Nc3ccccc3)n2)cc1
How it was run: as §1

crizotinib = compound: C[C@@H](Oc1cc(-c2cnn(C3CCNCC3)c2)cnc1N)c1c(Cl)ccc(F)c1Cl [crizotinib]
How it was run: as §1

[5] = compound: C[C@@H]1COCCN1C2=NC(=NC(=C2)C3(CC3)S(=O)(=O)C)C4=C5C=CNC5=CC=C4
How it was run: as §1

[6] = compound: C[C@H](C1=CC=C(C=C1)C(=O)NC2=C3C=CNC3=NC=C2)N
How it was run: as §1

duvelisib = compound: C[C@H](Nc1ncnc2nc[nH]c12)c1cc2cccc(Cl)c2c(=O)n1-c1ccccc1 [duvelisib]
How it was run: as §1

gandotinib = compound: Cc1cc(Nc2cc(CN3CCOCC3)c3nc(C)c(Cc4ccc(Cl)cc4F)n3n2)n[nH]1 [gandotinib]
How it was run: as §1

tozasertib = compound: Cc1cc(Nc2cc(N3CCN(C)CC3)nc(Sc3ccc(NC(=O)C4CC4)cc3)n2)n[nH]1 [tozasertib]
How it was run: as §1

[7] = compound: Cc1cc(SCc2sc(-c3ccc(C(F)(F)F)cc3)nc2C)ccc1OCC(=O)O
How it was run: as §1

doramapimod = compound: Cc1ccc(-n2nc(C(C)(C)C)cc2NC(=O)Nc2ccc(OCCN3CCOCC3)c3ccccc23)cc1 [doramapimod]
How it was run: as §1

ispinesib = compound: Cc1ccc(C(=O)N(CCCN)[C@@H](c2nc3cc(Cl)ccc3c(=O)n2Cc2ccccc2)C(C)C)cc1 [ispinesib]
How it was run: as §1

Measured: log2 fold change

EXOSC1 (UniProt Q9Y3B2)
inactive: [1] -0.05 | filanesib 0.122 | zotarolimus 0.053 | idasanutlin -0.028 | alisertib 0.017 | [2] -0.031 | gefitinib 0.027 | [3] -0.02 | lapatinib 0.016 | pictilisib -0.058 | [4] -0.022 | crizotinib 0.008 | [5] -0.092 | [6] 0.169 | duvelisib -0.062 | gandotinib 0.029 | tozasertib -0.013 | [7] 0.109 | doramapimod 0.043 | ispinesib -0.147

FAM120A isoform 6 (UniProt Q9NZB2)
inactive: [1] -0.092 | filanesib 0.125 | zotarolimus -0.06 | idasanutlin 0.094 | alisertib -0.067 | [2] -0.1 | gefitinib -0.053 | [3] -0.052 | lapatinib 0.105 | pictilisib -0.183 | [4] -0.092 | crizotinib 0.015 | [5] -0.242 | [6] 0.208 | duvelisib -0.117 | gandotinib 0.102 | tozasertib 0.019 | [7] -0.017 | doramapimod 0.052 | ispinesib -0.135

ETFA (UniProt P13804)
inactive: [1] -0.019 | filanesib -0.091 | zotarolimus 0.016 | idasanutlin -0.069 | alisertib -0.045 | [2] -0.008 | gefitinib 0 | [3] 0.05 | lapatinib -0.005 | pictilisib 0.087 | [4] 0.023 | crizotinib 0.021 | [5] 0.114 | [6] -0.069 | duvelisib 0.02 | gandotinib -0.055 | tozasertib -0.018 | [7] -0.012 | doramapimod -0.03 | ispinesib 0.047

ERC1 (UniProt Q8IUD2)
inactive: [1] -0.044 | filanesib 0.03 | zotarolimus 0.017 | idasanutlin 0.038 | alisertib -0.107 | [2] -0.06 | gefitinib 0.039 | [3] -0.014 | lapatinib -0.013 | pictilisib 0.147 | [4] 0.023 | crizotinib -0.119 | [5] 0.019 | [6] -0.001 | duvelisib 0.099 | gandotinib -0.216 | tozasertib -0.005 | [7] -0.103 | doramapimod 0.064 | ispinesib -0.148

Looked up one by one from the list above, 2 records:
EXOSC1 (UniProt Q9Y3B2)
inactive: [1] -0.05 | filanesib 0.122 | zotarolimus 0.053 | idasanutlin -0.028 | alisertib 0.017 | [2] -0.031 | gefitinib 0.027 | [3] -0.02 | lapatinib 0.016 | pictilisib -0.058 | [4] -0.022 | crizotinib 0.008 | [5] -0.092 | [6] 0.169 | duvelisib -0.062 | gandotinib 0.029 | tozasertib -0.013 | [7] 0.109 | doramapimod 0.043 | ispinesib -0.147

ETFA (UniProt P13804)
inactive: [1] -0.019 | filanesib -0.091 | zotarolimus 0.016 | idasanutlin -0.069 | alisertib -0.045 | [2] -0.008 | gefitinib 0 | [3] 0.05 | lapatinib -0.005 | pictilisib 0.087 | [4] 0.023 | crizotinib 0.021 | [5] 0.114 | [6] -0.069 | duvelisib 0.02 | gandotinib -0.055 | tozasertib -0.018 | [7] -0.012 | doramapimod -0.03 | ispinesib 0.047

The listing continues.

EZR (UniProt P15311)
inactive: [1] -0.03 | filanesib -0.015 | zotarolimus 0.027 | idasanutlin -0.021 | alisertib -0.051 | [2] 0.04 | gefitinib 0 | [3] -0.025 | lapatinib -0.01 | pictilisib -0.032 | [4] 0.007 | crizotinib 0.073 | [5] 0.003 | [6] -0.087 | duvelisib 0.004 | gandotinib -0.015 | tozasertib 0.031 | [7] -0.003 | doramapimod -0.009 | ispinesib 0.1

ETF1 (UniProt P62495)
inactive: [1] -0.03 | filanesib -0.055 | zotarolimus 0 | idasanutlin -0.072 | alisertib -0.034 | [2] 0.076 | gefitinib 0.008 | [3] 0.027 | lapatinib -0.055 | pictilisib 0.004 | [4] 0.03 | crizotinib -0.052 | [5] -0.002 | [6] -0.013 | duvelisib 0.014 | gandotinib -0.058 | tozasertib -0.039 | [7] 0.008 | doramapimod 0 | ispinesib -0.001

ERCC4 (UniProt Q92889)
inactive: [1] -0.338 | filanesib -0.133 | zotarolimus -0.113 | idasanutlin -0.045 | alisertib 0.252 | [2] 0.157 | gefitinib -0.023 | [3] 0.239 | lapatinib 0.044 | pictilisib 0.465 | [4] 0.27 | crizotinib 0.025 | [5] 0.238 | [6] 0.243 | duvelisib 0.166 | gandotinib -0.144 | tozasertib -0.037 | [7] -0.031 | doramapimod 0 | ispinesib -0.134

EPRS (UniProt P07814)
inactive: [1] -0.009 | filanesib 0.423 | zotarolimus 0.049 | idasanutlin 0.189 | alisertib -0.072 | [2] -0.013 | gefitinib -0.013 | [3] -0.203 | lapatinib 0.059 | pictilisib -0.164 | [4] 0.069 | crizotinib -0.076 | [5] -0.319 | [6] 0.401 | duvelisib -0.163 | gandotinib 0.141 | tozasertib 0.025 | [7] 0.09 | doramapimod 0.257 | ispinesib -0.255

EPHX1 (UniProt P07099)
inactive: [1] 0.002 | filanesib -0.03 | zotarolimus -0.051 | idasanutlin -0.023 | alisertib -0.03 | [2] -0.025 | gefitinib 0.046 | [3] 0.049 | lapatinib 0.011 | pictilisib -0.037 | [4] 0.032 | crizotinib 0.083 | [5] 0.021 | [6] -0.041 | duvelisib -0.046 | gandotinib -0.085 | tozasertib 0.013 | [7] -0.098 | doramapimod -0.015 | ispinesib 0.057

EXOSC7 (UniProt Q15024)
inactive: [1] -0.037 | filanesib 0.002 | zotarolimus -0.022 | idasanutlin -0.023 | alisertib -0.05 | [2] -0.008 | gefitinib 0.017 | [3] 0.033 | lapatinib -0.046 | pictilisib 0.014 | [4] -0.021 | crizotinib 0.073 | [5] -0.008 | [6] 0.033 | duvelisib 0.015 | gandotinib 0.05 | tozasertib -0.023 | [7] -0.075 | doramapimod -0.013 | ispinesib 0.012

ERO1A (UniProt Q96HE7)
inactive: [1] -0.044 | filanesib 0.019 | zotarolimus -0.001 | idasanutlin 0.007 | alisertib -0.021 | [2] -0.024 | gefitinib -0.002 | [3] -0.005 | lapatinib 0.031 | pictilisib 0.005 | [4] 0.004 | crizotinib -0.007 | [5] -0.031 | [6] 0.039 | duvelisib -0.015 | gandotinib -0.009 | tozasertib 0.023 | [7] -0.004 | doramapimod -0.023 | ispinesib 0.032

F2 (UniProt P00734)
inactive: [1] 0.047 | filanesib 0.243 | zotarolimus -0.128 | idasanutlin 0.04 | alisertib -0.026 | [2] -0.146 | gefitinib -0.175 | [3] 0.27 | lapatinib 0 | pictilisib -0.021 | [4] -0.099 | crizotinib 0.081 | [5] 0.135 | [6] 0.11 | duvelisib 0.021 | gandotinib -0.128 | tozasertib -0.108 | [7] 0.086 | doramapimod 0.011 | ispinesib -0.02

ERGIC3 isoform 3 (UniProt Q9Y282)
inactive: [1] -0.004 | filanesib -0.075 | zotarolimus -0.03 | idasanutlin 0.003 | alisertib -0.033 | [2] -0.044 | gefitinib 0.047 | [3] 0.005 | lapatinib 0.074 | pictilisib -0.036 | [4] -0.022 | crizotinib -0.015 | [5] -0.003 | [6] -0.006 | duvelisib -0.021 | gandotinib -0.015 | tozasertib 0.024 | [7] -0.027 | doramapimod -0.01 | ispinesib -0.054

ETFDH (UniProt Q16134)
inactive: [1] 0.085 | filanesib -0.146 | zotarolimus 0.012 | idasanutlin -0.034 | alisertib 0.03 | [2] -0.022 | gefitinib 0.026 | [3] 0.026 | lapatinib -0.052 | pictilisib 0.032 | [4] -0.007 | crizotinib -0.008 | [5] 0.077 | [6] -0.035 | duvelisib 0.017 | gandotinib 0 | tozasertib 0.017 | [7] -0.044 | doramapimod -0.027 | ispinesib -0.018

ERMAP (UniProt Q96PL5)
inactive: [1] -0.039 | filanesib 0.138 | zotarolimus -0.068 | idasanutlin 0.026 | alisertib 0.045 | [2] 0.083 | gefitinib 0.035 | [3] 0.015 | lapatinib -0.008 | pictilisib 0.091 | [4] 0.04 | crizotinib 0.01 | [5] -0.096 | [6] 0.075 | duvelisib -0.072 | gandotinib 0.038 | tozasertib 0.032 | [7] -0.004 | doramapimod -0.015 | ispinesib -0.039
